# Measured values reported in publication PMC7862700.
# By UniProt entry, the sequences of proteins in these tests, tags left out. Where a name states a change or a piece, a line headed by the entry shows the natural chain unless it says otherwise.
# UniProt O43186: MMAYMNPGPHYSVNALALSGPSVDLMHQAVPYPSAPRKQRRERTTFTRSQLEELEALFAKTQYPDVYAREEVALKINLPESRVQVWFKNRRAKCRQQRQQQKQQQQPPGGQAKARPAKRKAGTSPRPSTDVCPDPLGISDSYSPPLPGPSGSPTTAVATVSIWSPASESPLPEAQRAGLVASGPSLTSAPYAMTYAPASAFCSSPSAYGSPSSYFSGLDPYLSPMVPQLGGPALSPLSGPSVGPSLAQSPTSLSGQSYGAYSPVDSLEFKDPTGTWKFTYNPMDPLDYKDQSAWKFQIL
# This is a selection; strong and weak results do not stand in their true shares. At the low end of the ranking the order means little.
# Columns and labels:
# Assay in all cases: DAPPL (digital affinity profiling via proximity ligation, sequencing)
# Details in all cases: 10 mM Tris-HCl pH 7.5, 50 mM NaCl, 1 mM DTT, 4% glycerol, room temperature, 30 min; GST-TFs on glutathione beads, 16-mer random dsDNA library, 0.1% …; high values mean tight binding; double strand, one strand shown; scale: fold enrichment (6-mer frequency, TF over GST control)
# FEV = target: T1, FEV (UniProt Q99581)
# T1 sequence: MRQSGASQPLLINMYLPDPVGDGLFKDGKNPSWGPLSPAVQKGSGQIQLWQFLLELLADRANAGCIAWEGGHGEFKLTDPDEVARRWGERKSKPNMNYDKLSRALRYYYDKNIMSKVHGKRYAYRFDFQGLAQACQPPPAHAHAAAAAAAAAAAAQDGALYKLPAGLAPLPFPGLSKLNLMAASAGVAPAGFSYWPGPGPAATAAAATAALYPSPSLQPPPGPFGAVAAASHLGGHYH
# CRX = CRX (UniProt O43186)
# ELF5 = target: T2, ELF5 (UniProt Q9UKW6-2)
# T2 sequence: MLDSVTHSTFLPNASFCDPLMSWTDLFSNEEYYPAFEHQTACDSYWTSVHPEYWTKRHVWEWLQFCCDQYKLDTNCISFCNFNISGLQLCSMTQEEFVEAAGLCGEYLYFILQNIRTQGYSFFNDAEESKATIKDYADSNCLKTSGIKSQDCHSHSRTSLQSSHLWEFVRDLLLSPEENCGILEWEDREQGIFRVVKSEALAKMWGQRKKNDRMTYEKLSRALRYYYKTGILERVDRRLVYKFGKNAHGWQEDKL
Sequence,binding signal (FEV),binding signal (CRX),binding signal (ELF5)
TCGGGC,0.505,0.47,0.455
CAGTTA,0.776,0.732,0.717
GATCCG,0.955,0.956,1.02
ATCGTG,0.403,0.403,0.381
AGATCG,0.467,0.509,0.42
GGGCCG,0.606,0.426,0.572
GTAAAG,0.835,0.958,0.926
GTGTCA,0.766,0.574,0.759
GGTCGG,0.272,0.194,0.276
CAAGCG,0.893,0.74,0.801
TAAGTG,0.763,1.14,0.75
GGTGGC,0.784,0.594,0.68
CAGGCT,0.798,0.939,0.836
CGTGTA,0.633,0.557,0.697
GGGGGG,0.593,0.44,0.533
CGGGAC,0.577,0.364,0.577
ACGCAG,0.78,0.647,0.767
AGTCAC,0.741,0.557,0.803
GCCGGG,0.386,0.293,0.412
GTGTGC,0.883,0.592,0.829
ACCGGG,0.487,0.381,0.538

Sequence,binding signal (FEV),binding signal (CRX),binding signal (ELF5)
GTCAAC,0.864,0.608,0.848
GTGATC,0.794,0.872,0.828
GTCTGT,0.836,0.643,0.853
AGAGAG,0.51,0.481,0.501
TGGGGC,0.831,0.667,0.757
AAGTGA,0.643,0.556,0.669
GCCACG,0.954,0.745,0.9
ACCAGG,0.699,0.514,0.866
CGCCGT,0.937,0.713,0.901
TGAGGC,0.448,0.429,0.415
GGAGTG,0.398,0.309,0.391
GGTCAG,0.539,0.429,0.519
AAAGGA,0.884,0.979,0.98
AGGGTA,0.845,0.833,0.909
GGCGAC,0.895,0.668,0.824
GAATCG,0.585,0.592,0.599
TGAGGG,0.643,0.568,0.618
GTAGAC,0.807,0.56,0.755
CAGGGG,0.573,0.495,0.506
AGGGGG,0.613,0.543,0.581
CAGCGT,0.805,0.69,0.79

# 2 entries picked at random from those above:
Sequence,binding signal (FEV),binding signal (CRX),binding signal (ELF5)
GTGTGC,0.883,0.592,0.829
GTCAAC,0.864,0.608,0.848
